No constants are given. Whether binding was seen depends on the method and setting. For part of these data: In cells and extracts the contact can be indirect. Some entries that bind do so weakly or less than the wild type.
Columns and labels:
[1] = biological target: T1, FNIP1 (UniProt Q8TF40); test: co-IP
T1 sequence: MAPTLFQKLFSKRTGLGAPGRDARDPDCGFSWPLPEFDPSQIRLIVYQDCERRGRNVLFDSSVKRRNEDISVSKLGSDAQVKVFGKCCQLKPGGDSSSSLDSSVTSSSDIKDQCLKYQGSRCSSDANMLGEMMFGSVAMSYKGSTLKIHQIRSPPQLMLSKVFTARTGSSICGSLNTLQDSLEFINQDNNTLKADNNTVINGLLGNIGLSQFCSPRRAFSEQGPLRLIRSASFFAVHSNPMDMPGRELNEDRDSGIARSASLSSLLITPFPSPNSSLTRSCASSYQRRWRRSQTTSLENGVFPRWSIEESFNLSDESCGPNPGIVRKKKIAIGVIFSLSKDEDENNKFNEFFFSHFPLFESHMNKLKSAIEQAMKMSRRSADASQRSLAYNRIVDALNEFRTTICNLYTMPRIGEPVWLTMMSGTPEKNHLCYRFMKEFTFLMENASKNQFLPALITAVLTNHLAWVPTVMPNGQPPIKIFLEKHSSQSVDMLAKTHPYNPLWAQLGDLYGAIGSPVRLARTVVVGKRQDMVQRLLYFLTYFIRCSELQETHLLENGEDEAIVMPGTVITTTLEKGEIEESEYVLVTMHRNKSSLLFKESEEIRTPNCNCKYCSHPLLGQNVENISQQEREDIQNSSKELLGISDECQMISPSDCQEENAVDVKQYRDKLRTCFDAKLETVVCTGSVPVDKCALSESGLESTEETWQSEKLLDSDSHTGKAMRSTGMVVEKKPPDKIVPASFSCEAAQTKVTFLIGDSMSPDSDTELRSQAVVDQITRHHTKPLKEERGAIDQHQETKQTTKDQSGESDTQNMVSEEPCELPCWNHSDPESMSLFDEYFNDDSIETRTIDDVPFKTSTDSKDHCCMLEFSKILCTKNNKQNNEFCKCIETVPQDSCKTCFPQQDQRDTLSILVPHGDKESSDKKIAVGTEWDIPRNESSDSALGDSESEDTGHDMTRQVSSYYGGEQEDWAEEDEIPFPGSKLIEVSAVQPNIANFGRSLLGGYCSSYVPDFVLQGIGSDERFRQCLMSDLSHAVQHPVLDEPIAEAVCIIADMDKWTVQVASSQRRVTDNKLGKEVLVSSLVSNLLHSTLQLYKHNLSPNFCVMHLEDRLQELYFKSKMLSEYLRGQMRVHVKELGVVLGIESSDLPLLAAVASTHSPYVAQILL

The chains behind the UniProt entries cited, without tags or fusion partners. Where a name states a change or a piece, a line headed by the entry shows the natural chain unless it says otherwise.
UniProt Q8NFG4: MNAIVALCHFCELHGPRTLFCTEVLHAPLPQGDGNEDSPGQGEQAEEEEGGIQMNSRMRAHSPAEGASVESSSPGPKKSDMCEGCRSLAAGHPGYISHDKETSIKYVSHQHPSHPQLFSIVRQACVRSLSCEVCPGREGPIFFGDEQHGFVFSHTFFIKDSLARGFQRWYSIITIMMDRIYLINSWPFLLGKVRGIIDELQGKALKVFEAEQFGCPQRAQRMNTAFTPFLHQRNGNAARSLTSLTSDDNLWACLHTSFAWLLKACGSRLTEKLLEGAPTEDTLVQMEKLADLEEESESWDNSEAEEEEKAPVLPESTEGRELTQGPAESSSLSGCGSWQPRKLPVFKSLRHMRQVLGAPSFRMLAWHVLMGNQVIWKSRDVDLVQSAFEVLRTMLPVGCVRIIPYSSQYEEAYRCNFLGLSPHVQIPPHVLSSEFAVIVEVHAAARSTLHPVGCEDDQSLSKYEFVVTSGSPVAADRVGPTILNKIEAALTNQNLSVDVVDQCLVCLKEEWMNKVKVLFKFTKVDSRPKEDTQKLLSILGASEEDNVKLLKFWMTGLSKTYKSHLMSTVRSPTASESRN
UniProt O95166: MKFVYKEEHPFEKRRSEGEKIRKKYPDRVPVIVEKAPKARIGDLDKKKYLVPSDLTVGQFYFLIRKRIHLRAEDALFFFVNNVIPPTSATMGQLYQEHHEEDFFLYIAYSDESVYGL

[2] = biological target: FNIP1 LIR mutant Y583A/V586A (UniProt Q8TF40); test: co-IP
[3] = biological target: Biotinylated FLCN-8xGlycine-AviTag/FNIP2 (human) (UniProt Q8NFG4); test: SPR

| Substance | binding [1] | binding [2] | binding [3] |
| --- | --- | --- | --- |
| GABARAP (from UniProt O95166 1-117) | binds | no binding | – |
| GABARAP (1-117), His8-TEV-GABARAP (from UniProt O95166 1-117) | – | – | binds |

Reference: publication doi:10.1101/2021.02.22.432209
